At least one structure is not confirmed: it was looked up by name or label, or the drawing left a doubt.
System: neurons isolated from the cortex and striatum
Experiment: Veratridine-induced neuronal swelling, LDH release and MTS in cultured neurons
Format: cell-based, Sprague-Dawley rats
Settings: 10 μM veratridine 48 hours
[1] = 1.25, 2.5 or 5 μM pre-treatment overnight

NC(=S)N/N=C/c1ncccc1N [PAN-811, 3-aminopyridine-2-carboxaldehyde thiosemicarbazone]
neuronal cell size (cellular area) (5 μM pre-treatment overnight, versus insulted untreated controls, P<0.01): significant decrease in neuronal cell size
veratridine-induced LDH efflux (5 μM pre-treatment): full reversal of veratridine-induced LDH efflux
MTS readings (mitochondrial function) [1]: dose-dependently increased MTS readings
veratridine-induced LDH efflux (dose dependence) [1]: dose-dependently reduced veratridine-induced LDH efflux
